{"source": "PubChem BioAssay AID1259259 (Sanger Institute, 2017)", "screen": "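Kinome siRNA search for kinases essential alone or combined with trametinib, cetuximab or BYL719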 (primary screen)", "system": "SW1463 human colorectal cancer cells", "reagent": "siRNA pool against human genes", "challenge": "DMSO vehicle, or one anchor drug: BYL719 at 1 µM, cetuximab at 5 µg/ml, or trametinib at 10 nM", "detection": "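Viability relative to control pool 2 (non-targeting) averaged over replicates, robust z-score for knock-down with no drug, and for each anchor drug the mean synergy score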", "reading the numbers": "robust z-score, knock-down alone: higher = more viable cells after knock-down", "rule for the call": "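Knock-down called essential when its robust z-score without drug falls below -3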", "calls": "active = essential: viability loss from knock-down alone; inactive = no change from knock-down alone", "note": "The whole screen tested 794 reagents; this is an unselected part. In the full data, 9 (1.1%) were called active. 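Calls rest on knock-down alone, not drug synergy; viability values seem capped at 1.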 Entries without a mark were called inactive. Further read-outs or replicates are left out here. Not stated in the record: the amount of reagent, the time to read-out."}
{"gene":"PRKCG","robust z-score, knock-down alone":-0.0785}
{"gene":"FER","robust z-score, knock-down alone":-0.0617}
{"gene":"PACSIN1","robust z-score, knock-down alone":0.514}
{"gene":"AMHR2","robust z-score, knock-down alone":1.13}
{"gene":"DGKI","robust z-score, knock-down alone":0.266}
{"gene":"ANKK1","robust z-score, knock-down alone":0.418}
{"gene":"RIPK3","robust z-score, knock-down alone":0.0949}
{"gene":"TSSK6","robust z-score, knock-down alone":-0.483}
{"gene":"DCLK3","robust z-score, knock-down alone":-0.854}
{"gene":"KSR2","robust z-score, knock-down alone":-0.531}
{"gene":"BMP2K","robust z-score, knock-down alone":1.13}
{"gene":"DGKD","robust z-score, knock-down alone":-0.621}
{"gene":"TTBK2","robust z-score, knock-down alone":-0.533}
{"gene":"NR4A2","robust z-score, knock-down alone":-0.0716}
{"gene":"TRPM6","robust z-score, knock-down alone":1.13}
{"gene":"PAK2","robust z-score, knock-down alone":1.13}
{"gene":"ALPK3","robust z-score, knock-down alone":-0.85}
{"gene":"EPHA3","robust z-score, knock-down alone":-0.643}
{"gene":"NME5","robust z-score, knock-down alone":0.91}

2 entries from above, ordered by “robust z-score, knock-down alone”, ascending.
{"gene":"TRPM6","robust z-score, knock-down alone":1.13}
{"gene":"PAK2","robust z-score, knock-down alone":1.13}
